Measurements from publication doi:10.1101/2020.04.17.028118.
No constants are given. Whether binding was seen depends on the method and setting. Binding seen in cells or lysates may run through a third protein. Some binding calls cover weakened binding; strength is not graded here. Where a sequence is shown, tags or fusion partners need not be part of it.

Biological target: T1, Sgs1 (bait of the Rmi1 co-IP, Fig 3D) (S. cerevisiae) (UniProt P35187)
T1 sequence: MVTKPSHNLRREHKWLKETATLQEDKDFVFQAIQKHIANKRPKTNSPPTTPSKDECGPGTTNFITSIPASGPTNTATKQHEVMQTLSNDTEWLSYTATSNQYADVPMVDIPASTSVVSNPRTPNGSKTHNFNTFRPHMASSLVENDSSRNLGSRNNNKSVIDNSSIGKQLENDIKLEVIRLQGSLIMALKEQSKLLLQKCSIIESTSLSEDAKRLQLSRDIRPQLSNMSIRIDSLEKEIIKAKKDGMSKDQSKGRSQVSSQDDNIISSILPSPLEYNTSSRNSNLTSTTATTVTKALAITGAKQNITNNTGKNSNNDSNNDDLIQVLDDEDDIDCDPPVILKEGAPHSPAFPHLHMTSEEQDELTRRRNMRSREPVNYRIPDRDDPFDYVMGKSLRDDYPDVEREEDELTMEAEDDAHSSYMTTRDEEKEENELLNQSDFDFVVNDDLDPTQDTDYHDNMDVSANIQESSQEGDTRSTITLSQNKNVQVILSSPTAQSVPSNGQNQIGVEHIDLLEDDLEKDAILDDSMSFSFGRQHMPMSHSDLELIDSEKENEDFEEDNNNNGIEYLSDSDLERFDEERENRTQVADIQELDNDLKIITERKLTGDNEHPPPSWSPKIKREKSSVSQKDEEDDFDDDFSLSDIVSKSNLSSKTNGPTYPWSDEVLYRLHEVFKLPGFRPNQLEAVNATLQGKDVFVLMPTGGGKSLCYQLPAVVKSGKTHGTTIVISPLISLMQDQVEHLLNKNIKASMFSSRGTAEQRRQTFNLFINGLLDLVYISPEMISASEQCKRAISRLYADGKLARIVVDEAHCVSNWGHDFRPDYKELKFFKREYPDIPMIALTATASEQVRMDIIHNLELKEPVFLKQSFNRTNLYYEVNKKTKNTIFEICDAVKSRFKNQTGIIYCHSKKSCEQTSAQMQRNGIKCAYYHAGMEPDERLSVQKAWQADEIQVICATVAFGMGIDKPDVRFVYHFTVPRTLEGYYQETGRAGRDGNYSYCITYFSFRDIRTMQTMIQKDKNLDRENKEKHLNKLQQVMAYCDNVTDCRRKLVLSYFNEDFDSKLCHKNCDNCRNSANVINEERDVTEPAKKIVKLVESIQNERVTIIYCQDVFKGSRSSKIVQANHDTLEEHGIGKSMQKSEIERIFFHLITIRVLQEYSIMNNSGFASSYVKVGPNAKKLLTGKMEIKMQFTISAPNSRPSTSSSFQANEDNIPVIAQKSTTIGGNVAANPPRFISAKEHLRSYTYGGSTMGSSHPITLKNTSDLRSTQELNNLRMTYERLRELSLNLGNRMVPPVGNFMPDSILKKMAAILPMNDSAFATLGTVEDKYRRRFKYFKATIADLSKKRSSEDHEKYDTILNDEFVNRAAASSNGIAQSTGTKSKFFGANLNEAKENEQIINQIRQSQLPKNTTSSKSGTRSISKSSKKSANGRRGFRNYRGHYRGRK
Experiment: co-IP

binding: binds
B1: Rmi1 (tagged, co-IP with Sgs1) (protein, UniProt Q02685 1-241)
chain: MSFSSILSQDITDDITPPAYSATLGSREQIVFRAYQNEPWLAGTASNLILDKKLVIVDRELLFQVLMVENITKSKLTQIDDIKTKLDPKKQKVDRLRSGAQGNGAKKYEVITQVDMEDDGNVADNNCAKENNSNNNSSAAKNKAVFKLTLQSKSGDVFFAINSTPISWSSCMLGSKIVILPGTVFNRGVFILKDSQVIFLGGINRVWNENRDQKFCDYLESKLQRDKQLVNGGSKKRKAND
